Consider 4 compounds from US20120220567A1, “BENZO-FUSED OXAZEPINE COMPOUNDS AS STEAROYL-COENZYME A DELTA-9 DESATURASE INHIBITORS” (priority 2009, published 2012).

Amino acid sequences for entries named in this document (tags omitted).
UniProt O00767, whole entry: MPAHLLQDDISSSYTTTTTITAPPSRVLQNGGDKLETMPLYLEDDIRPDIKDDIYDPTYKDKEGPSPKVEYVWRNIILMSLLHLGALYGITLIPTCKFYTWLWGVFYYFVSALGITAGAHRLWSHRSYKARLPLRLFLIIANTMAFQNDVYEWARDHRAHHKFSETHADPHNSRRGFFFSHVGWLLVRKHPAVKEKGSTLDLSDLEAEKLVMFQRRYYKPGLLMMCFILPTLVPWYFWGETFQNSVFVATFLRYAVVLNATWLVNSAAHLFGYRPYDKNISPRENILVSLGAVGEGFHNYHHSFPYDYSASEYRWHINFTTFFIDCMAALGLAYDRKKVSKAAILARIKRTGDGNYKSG

Molecules are shown by their SMILES. Structures were worked out from names or drawings and are uncertain.

For orientation: IC50 means the concentration at which inhibition is half-maximal.

The target in the test is SCD-1 (Homo sapiens, UniProt O00767). Briefly: Stearoyl-CoA desaturase assay (HepG2 cell P2 pellet). The settings on record: read-out: Ave IC50 nM; Table 1, compounds of formula (Ia); protein from HepG2 cell P2 pellet, 20 μM stearoyl-CoA, 15 min at 25° C.

Take `CC(=O)NCC(=O)N1CCC2(CC1)CCN(Cc1ccc(C(C)(C)C)cc1)c1cccc(Cl)c1O2` [Compound 15]: the IC50 was in the range of 500 to 10000 nM.

`CC(=O)NCC(=O)N1CCC2(CC1)CCN(Cc1cccc(C(F)(F)F)c1)c1cccc(F)c1O2` [Compound 45]: the half-maximal inhibitory concentration (IC50) is 500 to 10000 nM.

For `CC(=O)NCC(=O)N1CCC2(CC1)CCN(Cc1ccc(C(C)(C)C)cc1)c1cccc(F)c1O2` [Compound 46], the IC50 lay within 50 to 499 nM.

`CCc1ccc(CN2CCC3(CCN(C(=O)CNC(C)=O)CC3)Oc3c(F)cccc32)cc1` [Compound 47]: the IC50 lay within 50 to 499 nM.
